This assay addresses nucleolin (endogenous NCL) (mouse (endogenous in RAW 264.7)) (UniProt P09405). Briefly: co-IP; RAW 264.7 cells stimulated with LPS for 12 h; lysed with 1% NP-40; protein G-Sepharose, washed with 0.1% NP-40; immunoblot.

The chains behind the UniProt entries cited, without tags or fusion partners. Where a name states a change or a piece, a line headed by the entry shows the natural chain unless it says otherwise.
UniProt P09405: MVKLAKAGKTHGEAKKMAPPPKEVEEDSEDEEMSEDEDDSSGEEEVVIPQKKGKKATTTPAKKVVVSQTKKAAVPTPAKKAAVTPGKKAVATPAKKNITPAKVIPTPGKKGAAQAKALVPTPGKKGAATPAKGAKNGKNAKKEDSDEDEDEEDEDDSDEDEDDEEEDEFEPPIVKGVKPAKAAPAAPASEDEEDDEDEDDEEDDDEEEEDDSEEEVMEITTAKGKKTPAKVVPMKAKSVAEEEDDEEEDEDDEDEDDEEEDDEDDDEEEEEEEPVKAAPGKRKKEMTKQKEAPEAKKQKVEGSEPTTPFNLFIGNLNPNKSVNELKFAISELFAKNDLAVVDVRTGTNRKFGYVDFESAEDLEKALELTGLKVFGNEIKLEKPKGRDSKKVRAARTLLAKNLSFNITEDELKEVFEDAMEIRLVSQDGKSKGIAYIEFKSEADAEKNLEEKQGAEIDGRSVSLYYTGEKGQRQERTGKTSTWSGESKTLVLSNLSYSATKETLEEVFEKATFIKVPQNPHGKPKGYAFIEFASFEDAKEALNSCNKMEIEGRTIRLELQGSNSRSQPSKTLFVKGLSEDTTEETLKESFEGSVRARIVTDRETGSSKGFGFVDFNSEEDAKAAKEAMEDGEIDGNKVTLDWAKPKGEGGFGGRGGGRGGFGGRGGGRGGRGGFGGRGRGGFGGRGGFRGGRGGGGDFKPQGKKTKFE
UniProt P62715: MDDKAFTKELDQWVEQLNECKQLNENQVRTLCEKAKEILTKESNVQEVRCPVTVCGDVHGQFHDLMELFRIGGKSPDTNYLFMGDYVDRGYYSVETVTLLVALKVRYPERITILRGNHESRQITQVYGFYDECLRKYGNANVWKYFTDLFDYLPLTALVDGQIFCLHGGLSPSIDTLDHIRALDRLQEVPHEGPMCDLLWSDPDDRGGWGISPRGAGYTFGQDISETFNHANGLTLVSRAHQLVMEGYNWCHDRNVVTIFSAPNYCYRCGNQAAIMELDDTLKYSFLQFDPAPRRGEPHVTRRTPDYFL

Results are given in words; binding and its absence hold for the method and conditions named. In cells and extracts the contact can be indirect. Binding calls can cover weak binding; strength is not graded here.

As to “protein phosphatase 2A (PP2A), catalytic subunit PP2AC (from UniProt P62715) (enzyme)”, the binding result was “binds”.

These data come from PMC9440930.
